Laboratory results: PubChem BioAssay AID1259285 (Sanger Institute, 2017)
Here is a random part of 794 reagents. 20 of all reagents (2.5%) count as active. 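Calls rest on the drug-free arm alone and ignore synergy scores; viability ratios seem to be capped at 1.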 Further read-outs or replicates are left out here. The record does not give: the amount of reagent, the time to read-out.

Screen: 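Kinase knock-downs that reduce colorectal cancer cell viability or act with drugs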 (primary screen)
Cells: human HCC56 colorectal cancer cells
Reagents: siRNA pool against human genes
Treatment: DMSO vehicle, or anchor drug BYL719 at 1 µM, cetuximab at 5 µg/ml, or trametinib at 10 nM
Detection: 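Replicate-averaged viability relative to non-targeting siRNA, expressed as a robust z-score from controls, plus a synergy score for each of three anchor drugs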
Scale: viability robust z-score, no drug: higher = more viable cells, weaker knock-down effect; viability vs non-targeting pool, no drug: higher = more viable cells
Active means: 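a knock-down counts as essential if its viability z-score without drug is under -3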
Meaning of the calls: active = essential without drug; inactive = no change without drug

What is on record for ALDH18A1?
viability robust z-score, no drug: 0.458; viability vs non-targeting pool, no drug: 1; call: inactive

How did the screen score STAG2?
viability robust z-score, no drug: 0.458; viability vs non-targeting pool, no drug: 1; call: inactive

What is on record for DYRK1B?
viability robust z-score, no drug: -0.913; viability vs non-targeting pool, no drug: 0.882; call: inactive

What did the screen give for ERBB2?
viability robust z-score, no drug: 0.458; viability vs non-targeting pool, no drug: 1; call: inactive

What is on record for NEK5?
viability robust z-score, no drug: 0.458; viability vs non-targeting pool, no drug: 1; call: inactive

What is on record for MAP3K15?
viability robust z-score, no drug: 0.458; viability vs non-targeting pool, no drug: 1; call: inactive

For STK3, what was measured?
viability robust z-score, no drug: 0.458; viability vs non-targeting pool, no drug: 1; call: inactive

Which result is listed for CALM1?
viability robust z-score, no drug: -0.382; viability vs non-targeting pool, no drug: 0.928; call: inactive

Which result is listed for NRBP1?
viability robust z-score, no drug: 0.458; viability vs non-targeting pool, no drug: 1; call: inactive

For GUCY2D, how do the results read?
viability robust z-score, no drug: -3.46; viability vs non-targeting pool, no drug: 0.663; call: active

For SRPK2, how do the results read?
viability robust z-score, no drug: 0.0526; viability vs non-targeting pool, no drug: 0.965; call: inactive

With CAMK1, what does the deposit list?
viability robust z-score, no drug: 0.458; viability vs non-targeting pool, no drug: 1; call: inactive

For TCF12, what was measured?
viability robust z-score, no drug: 0.458; viability vs non-targeting pool, no drug: 1; call: inactive

With IGF2R, what was measured?
viability robust z-score, no drug: 0.458; viability vs non-targeting pool, no drug: 1; call: inactive

With PEAK1, what does the deposit list?
viability robust z-score, no drug: -1.05; viability vs non-targeting pool, no drug: 0.871; call: inactive

What is on record for DGKK?
viability robust z-score, no drug: 0.144; viability vs non-targeting pool, no drug: 0.973; call: inactive

With IPMK, what was measured?
viability robust z-score, no drug: 0.458; viability vs non-targeting pool, no drug: 1; call: inactive

With PRKACA, what was measured?
viability robust z-score, no drug: -0.554; viability vs non-targeting pool, no drug: 0.913; call: inactive

What did the screen give for MAP3K7?
viability robust z-score, no drug: 0.458; viability vs non-targeting pool, no drug: 1; call: inactive

How did the screen score STK25?
viability robust z-score, no drug: 0.458; viability vs non-targeting pool, no drug: 1; call: inactive

With CHUK, how do the results read?
viability robust z-score, no drug: 0.458; viability vs non-targeting pool, no drug: 1; call: inactive

With PIP5KL1, what was measured?
viability robust z-score, no drug: -1.19; viability vs non-targeting pool, no drug: 0.858; call: inactive

For WNK2, how do the results read?
viability robust z-score, no drug: 0.458; viability vs non-targeting pool, no drug: 1; call: inactive

How did the screen score NME5?
viability robust z-score, no drug: 0.458; viability vs non-targeting pool, no drug: 1; call: inactive

For TLK2, what was measured?
viability robust z-score, no drug: 0.458; viability vs non-targeting pool, no drug: 1; call: inactive

What is on record for GRK1?
viability robust z-score, no drug: -0.38; viability vs non-targeting pool, no drug: 0.928; call: inactive

For PSKH1, what does the deposit list?
viability robust z-score, no drug: 0.458; viability vs non-targeting pool, no drug: 1; call: inactive

What did the screen give for SMAD2?
viability robust z-score, no drug: -4.16; viability vs non-targeting pool, no drug: 0.604; call: active
